This note sets out measurements from the supplement of paper PMC3334620.

In all, about 33,000 sequences were measured (“E-score (-0.5 to 0.5)”: median about -0.0034, highest 2% from about 0.25 on). The list shows a part of the results.

The target in the experiment is T1, Yap3 (UniProt P38749).
T1 sequence: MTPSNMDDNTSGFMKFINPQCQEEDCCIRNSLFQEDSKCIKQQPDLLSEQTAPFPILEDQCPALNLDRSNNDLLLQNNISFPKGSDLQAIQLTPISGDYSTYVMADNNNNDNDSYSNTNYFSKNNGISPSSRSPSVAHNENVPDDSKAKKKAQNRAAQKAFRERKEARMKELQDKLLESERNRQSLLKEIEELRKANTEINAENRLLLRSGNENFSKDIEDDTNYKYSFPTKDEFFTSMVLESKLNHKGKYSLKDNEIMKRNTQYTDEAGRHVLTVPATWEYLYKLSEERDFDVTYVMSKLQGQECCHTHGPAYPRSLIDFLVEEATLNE
The experiment can be described thus: PBM E-score (8-mer binding enrichment) (E-score (-0.5 to 0.5)); higher = stronger / more preferred TF binding. To be noted: protein concentration: 100 nM; construct: GST-full length. The gist of the method: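 The E-score, a modified Wilcoxon-Mann-Whitney statistic, was computed by the Universal PBM Analysis Suite for every ungapped eight-base word pooled with its reverse complement. Scans behind it were normalised with masliner after bound GST-tagged yeast transcription factors were detected with fluorescent anti-GST. The proteins, at about 100-200 nM, had been applied to universal all-10-mer Agilent arrays made double-stranded by primer extension.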
Take GACATAAA: the “PBM E-score” value is 0.237.
In the case of GTCCTGTA it was 0.0436; in that of GACAGTCA, -0.252; in that of GTAAATAA, 0.267.
Take TAGTTTCA: the “PBM E-score” value was found to be 0.124.
For the sequence ATATGCCG, the “PBM E-score” value was determined as 0.113.
As for AGTAGCTC, the “PBM E-score” value was -0.198.
ACTCGTGA: the “PBM E-score” value was -0.0997.
Turning to AACGTTCG, the “PBM E-score” value was -0.109.
On to CGTCCCGC, for which the “PBM E-score” value is -0.138.
For the sequence ATGTGAGC, the “PBM E-score” value was -0.0137.
For TCAGGTCA, the “PBM E-score” value is -0.0922.
In the case of AAGATAGC, the “PBM E-score” value came to 0.0504.
As for AAGCTTTG, the “PBM E-score” value amounted to 0.0373.
Turning to AAGCACCT, the “PBM E-score” value came to 0.0698.
Regarding GCATAAAA, the “PBM E-score” value was determined as 0.147.
To CTCGGCAG belongs -0.119.
As to AAGTGCGT, the “PBM E-score” value was determined as 0.0236.
To CCGGGTGA belongs -0.0822; to CACCTGCG, -0.0278.
For the sequence ATATTGGC, the “PBM E-score” value came to 0.0735.
For the sequence AACAGAAT, the “PBM E-score” value amounted to 0.0478.
Turning to ACGGAGCG, the “PBM E-score” value is 0.00415.
In the case of GTATTCAA it was 0.231.
As for ATCCGCTG, the “PBM E-score” value is -0.108.
In the case of AACTTCCG it was 0.0909.
Take GAAAGAGA: the “PBM E-score” value turned out to be 0.0574.
Take CTTCTAGA: the “PBM E-score” value was -0.131.
In the case of ACCGTCCC it was -0.165.
In the case of ACTTTAAT it was 0.187; in that of ATGCAGTA, 0.129; in that of CGCATAAA, 0.203.
Consider ATATCACG, for which the “PBM E-score” value was found to be 0.181.
To ATTAAGAC belongs 0.161.
To CCTGATTC belongs 0.0132.
As to ACCCCGGA, the “PBM E-score” value is -0.148.
In the case of TGTACACA, the “PBM E-score” value worked out at 0.191.
For GCACTCAA, the “PBM E-score” value is -0.241.
In the case of CCCCGGGG it was -0.471; in that of GCACGTGA, -0.0556; in that of AACTTAAC, 0.226.
As to ATTTCTAC, the “PBM E-score” value is -0.0293.
ACTACTTG: the “PBM E-score” value was 0.0999.
On to ATACCGTG, for which the “PBM E-score” value is -0.0112.
In the case of CAATCCCG it was 0.144; in that of GAAGCACA, 0.0508.
GCGTGTCC: the “PBM E-score” value is -0.045.
For ACACATGT, the “PBM E-score” value came out at 0.0237.
In the case of ATCCGCTA it was 0.0334; in that of CATTCAGA, 0.0332; in that of GGTTGAAC, 0.0646.
To ACCTGGGC belongs -0.349.
In the case of AAGAATCA it was 0.214.
As to CATTAACG, the “PBM E-score” value amounted to 0.119.
In the case of CGCCCCGC, the “PBM E-score” value was -0.104.
For ACATAGAC, the “PBM E-score” value worked out at 0.0417.
In the case of GACTGCAA, the “PBM E-score” value is -0.0662.
In the case of ACACATCC it was 0.0146; in that of ATAGCCTG, -0.282.
In the case of AAGCCCAG, the “PBM E-score” value was -0.0605.
As to AAGGCAAT, the “PBM E-score” value came to 0.0883.
As for GGTGTTGA, the “PBM E-score” value was -0.0895.
For TCCAATAA, the “PBM E-score” value came to 0.157.
For the sequence AACGTACT, the “PBM E-score” value was determined as 0.173.
Consider AAAGTGCT, for which the “PBM E-score” value was 0.0686.
To AAAAGGCA belongs 0.115; to AGCACCGA, 0.14.
To ATACTGGA belongs 0.135; to CTGACAAA, 0.154; to AAAGGATT, -0.0578.
Take CAACCACA: the “PBM E-score” value stood at 0.0438.
To ACACTGCA belongs -0.174; to ACGTTTGG, -0.088.
ACCGGGGA: the “PBM E-score” value is -0.32.
With CTTCTTCC, the “PBM E-score” value was -0.132.
In the case of AAGACGAC, the “PBM E-score” value stood at 0.0944.
Regarding AGCCAACC, the “PBM E-score” value came out at 0.117.
With TGAGATCA, the “PBM E-score” value is -0.041.
As for AGAGACTC, the “PBM E-score” value was 0.00576.
Regarding CGAGTGCG, the “PBM E-score” value stood at 0.08.
CTAGAGTC: the “PBM E-score” value is -0.31.
As for ATCAGGTG, the “PBM E-score” value is -0.047.
Regarding ATGTATCG, the “PBM E-score” value was found to be 0.249.
As to GTGTAAAC, the “PBM E-score” value is -0.0971.
With AAGGCATC, the “PBM E-score” value is -0.332.
In the case of CTAAAGCA, the “PBM E-score” value came out at 0.105.
Consider CCAATTCC, for which the “PBM E-score” value is 0.0686.
Consider ATTATCGC, for which the “PBM E-score” value was 0.304.
For the sequence CGGAAAAA, the “PBM E-score” value amounted to 0.237.
AACTGTGG: the “PBM E-score” value was determined as 0.106.
In the case of ATGGACAA it was 0.0861; in that of AGGGTATG, 0.0575; in that of AGGCAGGC, -0.226.
As to AATCAAAT, the “PBM E-score” value stood at 0.191.
